Record: PubChem BioAssay AID1259282 (Sanger Institute, 2017)
The whole screen tested 794 reagents; below is a part drawn at random. Over the whole deposit, 11 (1.4%) were called active. 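Calls flag knock-downs that lower viability without drug; drug synergy appears only in the synergy scores; exposure time not stated.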 A number with no mark means an inactive call. Viability is capped at 1. Not all columns of the deposit are shown. The record does not give: the amount of reagent, the time to read-out.

Aim: 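siRNA screen across the kinome seeking drug combinations lethal to colorectal cancer cells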 (primary screen)
Cells: DIFI human colorectal cancer cell line
Reagents: siRNA pool against human genes
Treatment: anchor drug at a mild dose (BYL719 1 µM, cetuximab 5 µg/ml, trametinib 10 nM) or DMSO vehicle; exposure time not given
Measured: 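Robust z-score and replicate-mean viability versus non-targeting pool without drug, plus a synergy score for each low-dose anchor drug (BYL719, cetuximab, trametinib)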
Scale: robust z-score, knock-down alone: higher = more viable cells than typical knock-down; viability, knock-down alone: higher = more viable cells
Units: viability, knock-down alone in fraction of control
Rule for the call: 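a knock-down is called essential if its DMSO robust z-score is under -3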
Calls: active = essential (knock-down alone, z below -3); inactive = not essential

What is on record for STK38?
robust z-score, knock-down alone: -2.11; viability, knock-down alone: 0.59

What is on record for PXK?
robust z-score, knock-down alone: -0.447; viability, knock-down alone: 0.831

With ADGRL2, what was measured?
robust z-score, knock-down alone: 0.715; viability, knock-down alone: 1

With CDK3, what does the deposit list?
robust z-score, knock-down alone: 0.715; viability, knock-down alone: 1

How did the screen score DGKG?
robust z-score, knock-down alone: -0.369; viability, knock-down alone: 0.843

Which result is listed for PFKFB3?
robust z-score, knock-down alone: -0.169; viability, knock-down alone: 0.872

For ULK4, how do the results read?
robust z-score, knock-down alone: 0.0618; viability, knock-down alone: 0.905

How did the screen score MARK4?
robust z-score, knock-down alone: -1.74; viability, knock-down alone: 0.644

How did the screen score PRPS1L1?
robust z-score, knock-down alone: 0.209; viability, knock-down alone: 0.926

For PIK3CD, how do the results read?
robust z-score, knock-down alone: 0.7; viability, knock-down alone: 0.998

Which result is listed for TRIB2?
robust z-score, knock-down alone: -4.05 (active); viability, knock-down alone: 0.308

Laid out differently: results already given
| gene symbol | robust z-score, knock-down alone | viability, knock-down alone |
| --- | --- | --- |
| PRPS1L1 | 0.209 | 0.926 |
| PIK3CD | 0.7 | 0.998 |

The listing continues.
How did the screen score MAP3K4?
robust z-score, knock-down alone: 0.0848; viability, knock-down alone: 0.908

What did the screen give for RTN4?
robust z-score, knock-down alone: -0.0727; viability, knock-down alone: 0.886

What did the screen give for MKNK2?
robust z-score, knock-down alone: 0.715; viability, knock-down alone: 1

Which result is listed for PIK3CA?
robust z-score, knock-down alone: -0.662; viability, knock-down alone: 0.8

How did the screen score MAP3K1?
robust z-score, knock-down alone: 0.715; viability, knock-down alone: 1

Which result is listed for ADCK1?
robust z-score, knock-down alone: 0.568; viability, knock-down alone: 0.979

For PIK3R5, what does the deposit list?
robust z-score, knock-down alone: 0.509; viability, knock-down alone: 0.97

For EIF2AK1, what does the deposit list?
robust z-score, knock-down alone: 0.24; viability, knock-down alone: 0.931

For STK36, what was measured?
robust z-score, knock-down alone: 0.715; viability, knock-down alone: 1

With LMTK1, what was measured?
robust z-score, knock-down alone: -2.55; viability, knock-down alone: 0.525

With BRSK2, what does the deposit list?
robust z-score, knock-down alone: 0.632; viability, knock-down alone: 0.988

With FXN, how do the results read?
robust z-score, knock-down alone: 0.715; viability, knock-down alone: 1

For RPS6KC1, what was measured?
robust z-score, knock-down alone: -0.234; viability, knock-down alone: 0.862

For PKM, what does the deposit list?
robust z-score, knock-down alone: 0.456; viability, knock-down alone: 0.962

Which result is listed for MYLK4?
robust z-score, knock-down alone: -0.593; viability, knock-down alone: 0.81

For CSNK1G3, what was measured?
robust z-score, knock-down alone: 0.715; viability, knock-down alone: 1

How did the screen score PDK3?
robust z-score, knock-down alone: 0.715; viability, knock-down alone: 1
